According to PubChem BioAssay AID330 (DTP/NCI, 2004):
The list is a part of this screen's results and no random one: it is rich in T/C values a quarter to a half above the control, in often repeated tests (any T/C) and in doses without a T/C. Other doses and runs of a compound stand elsewhere. T/C: endpoint of the treated group in % of that of the vehicle group. Some entries give survivors of the animals treated and no T/C: the source holds a T/C of zero for them, seemingly a mark for toxic or unscored doses. Some doses without a T/C left all or most animals alive at the check, yet need not have been tolerated: survival well below the control is almost never listed, so the zero probably covers shortened survival too. Survivors were counted at the toxicity check, usually on the fifth day, unless a day is given; later deaths do not show. Schedule codes are those of the source, read here as Q, the interval in days (D) or hours (H), X, the number of doses. Some doses were run more than once; the results are listed from low to high. Where survival is the endpoint, the PubChem record calls one and a half times the control and up active, and a quarter to a half above the control has no call in these data; cut-offs in other NCI protocols can differ. Some T/C values carry the count of animals alive at the toxicity check (mostly the fifth day); without a count, all were alive then. Brackets with × give the number of equal values in this list.

Tested on: P388 leukemia ip, CD2F1 mice, survival T/C
Assay: NCI In Vivo Anticancer Drug Screen. Data for tumor model P388 Leukemia (intraperitoneal) in CD2F1 (CDF1) mice
Details: T/C endpoint: median survival time, higher T/C = longer survival
[1] = dose: 50.0 mg/kg/injection, schedule: Q01DX001 (ip), vehicle: Klucel (hydroxypropylcellulose) (HPC)
[2] = dose: 100.0 mg/kg/injection, schedule: Q01DX001 (ip), vehicle: Klucel (hydroxypropylcellulose) (HPC)
[3] = dose: 200.0 mg/kg/injection, schedule: Q01DX001 (ip), vehicle: Klucel (hydroxypropylcellulose) (HPC)
[4] = dose: 400.0 mg/kg/injection, schedule: Q01DX001 (ip), vehicle: Klucel (hydroxypropylcellulose) (HPC)

## O=C1C=CN(C2OC(CO)C(O)C2O)C(=O)C1 (stereo not drawn)
[1]
  T/C: 95, 96 (3×), 98 (3×), 99 (2×), 100 (4×), 100 [4 of 6 alive], 101, 102 (3×), 103, 107 (2×), 108, 109 (3×), 110, 112, 113, 115, 118 % of control
  survivor count: 6 of 6
dose: 50.0 mg/kg/injection, schedule: Q01DX005 (ip), vehicle: Klucel (hydroxypropylcellulose) (HPC), evaluated on day 30
  T/C: 91, 96, 107 (2×), 109, 111, 113 (2×), 114 (2×), 114 [5 of 6 alive], 115, 117, 119 (2×), 120 (2×), 121 (2×), 122, 123 (3×), 125, 126, 127, 128 (3×), 129, 132, 140 % of control
dose: 50.0 mg/kg/injection, schedule: Q01DX005 (ip), vehicle: Klucel (hydroxypropylcellulose) (HPC), evaluated on day 35
  T/C: 140 % of control [5 of 6 alive]
dose: 50.0 mg/kg/injection, schedule: Q01DX009 (ip), vehicle: Klucel (hydroxypropylcellulose) (HPC), evaluated on day 30
  T/C: 96, 98 (2×), 100 (2×), 106 (2×), 107 (3×), 108, 109 [5 of 6 alive], 110, 117 (2×), 118, 119 (3×), 120 [2 of 3 alive], 121, 122, 125, 127 (4×), 128 (2×), 129 (2×), 130, 131 % of control
dose: 50.0 mg/kg/injection, schedule: Q01DX009 (ip), vehicle: Klucel (hydroxypropylcellulose) (HPC), evaluated on day 35
  T/C: 100 and 104 % of control
dose: 50.0 mg/kg/injection, schedule: Q04DX002 (ip), vehicle: Klucel (hydroxypropylcellulose) (HPC), evaluated on day 30
  T/C: 91, 98 [4 of 6 alive], 99, 100, 101 (2×), 102 (2×), 104, 105, 106, 107, 108 (3×), 109 (3×), 110 (4×), 112 (3×), 113, 116, 117 (2×), 118, 119, 120, 134 % of control
dose: 50.0 mg/kg/injection, schedule: Q04DX002 (ip), vehicle: Klucel (hydroxypropylcellulose) (HPC), evaluated on day 35
  T/C: 90 [5 of 6 alive], 104, 109 % of control
dose: 50.0 mg/kg/injection, schedule: Q04DX002 (ip), vehicle: Klucel (hydroxypropylcellulose) (HPC)
  survivor count: 5 of 6 and 3 of 3
dose: 50.0 mg/kg/injection, schedule: Q04DX003 (ip), vehicle: Klucel (hydroxypropylcellulose) (HPC)
  T/C: 98, 99, 100, 102 (2×), 103 (2×), 104 (5×), 105, 106 (3×), 107 (2×), 108 (3×), 109 (2×), 110, 111 (2×), 112, 113, 114 (3×), 115, 118, 122 % of control
[2]
  T/C: 90, 93, 94, 96 (3×), 98, 99, 99 [2 of 3 alive], 100, 101 (2×), 103, 104 (2×), 105 (4×), 107, 108 (2×), 109 (2×), 110, 112, 113 (2×), 115 (2×), 117 % of control
  survivor count: 6 of 6
dose: 100.0 mg/kg/injection, schedule: Q01DX005 (ip), vehicle: Klucel (hydroxypropylcellulose) (HPC), evaluated on day 30
  T/C: 86, 93, 100, 103, 109, 115, 116, 117 (2×), 118, 119 (4×), 120, 121, 122 (2×), 123 (4×), 124 (2×), 128 (2×), 131, 132, 133, 134, 139, 151 % of control
dose: 100.0 mg/kg/injection, schedule: Q01DX005 (ip), vehicle: Klucel (hydroxypropylcellulose) (HPC), evaluated on day 35
  T/C: 94 % of control
dose: 100.0 mg/kg/injection, schedule: Q01DX009 (ip), vehicle: Klucel (hydroxypropylcellulose) (HPC), evaluated on day 30
  T/C: 89, 93 [5 of 6 alive], 94, 100 (3×), 102, 106, 107 (2×), 107 [5 of 6 alive], 108 (2×), 112 (3×), 117 (2×), 118 (2×), 119, 120, 122, 123 (2×), 125, 127, 129, 130, 144, 145, 150 % of control
dose: 100.0 mg/kg/injection, schedule: Q01DX009 (ip), vehicle: Klucel (hydroxypropylcellulose) (HPC), evaluated on day 35
  T/C: 112 [5 of 6 alive] and 119 % of control
dose: 100.0 mg/kg/injection, schedule: Q01DX009 (ip), vehicle: Klucel (hydroxypropylcellulose) (HPC)
  survivor count: 5 of 6
dose: 100.0 mg/kg/injection, schedule: Q04DX002 (ip), vehicle: Klucel (hydroxypropylcellulose) (HPC), evaluated on day 30
  T/C: 101 (2×), 102, 103 (2×), 104 (3×), 105 (3×), 106, 107 (3×), 108, 108 [2 of 3 alive], 109 (2×), 110 (6×), 111, 113 (2×), 115 (2×), 117 (2×), 118 % of control
dose: 100.0 mg/kg/injection, schedule: Q04DX002 (ip), vehicle: Klucel (hydroxypropylcellulose) (HPC), evaluated on day 35
  T/C: 96, 102, 118 % of control
dose: 100.0 mg/kg/injection, schedule: Q04DX002 (ip), vehicle: Klucel (hydroxypropylcellulose) (HPC)
  survivor count: 3 of 3 and 6 of 6
dose: 100.0 mg/kg/injection, schedule: Q04DX003 (ip), vehicle: Klucel (hydroxypropylcellulose) (HPC)
  T/C: 95, 96, 102 (3×), 104 (2×), 106, 107, 108 (6×), 109, 110 (3×), 111 (2×), 112, 113 (3×), 114 (2×), 115 (3×), 116, 117, 121, 125 % of control
[3]
  T/C: 89, 95, 96, 101, 102, 103 (3×), 103 [2 of 3 alive], 104 (2×), 105 (3×), 106 (3×), 107 (3×), 108 (3×), 109 (2×), 110 (2×), 111, 113 (2×), 114 % of control
  survivor count: 6 of 6
dose: 200.0 mg/kg/injection, schedule: Q01DX005 (ip), vehicle: Klucel (hydroxypropylcellulose) (HPC), evaluated on day 30
  T/C: 111, 112, 114 (2×), 115 (3×), 116 (2×), 122 (4×), 123, 125 (2×), 126, 128 (2×), 130, 132, 133 (2×), 134 (2×), 137, 138, 147 % of control
dose: 200.0 mg/kg/injection, schedule: Q01DX005 (ip), vehicle: Klucel (hydroxypropylcellulose) (HPC), evaluated on day 35
  T/C: 87 % of control
dose: 200.0 mg/kg/injection, schedule: Q01DX005 (ip), vehicle: Klucel (hydroxypropylcellulose) (HPC)
  survivor count: 3 of 3 and 6 of 6
dose: 200.0 mg/kg/injection, schedule: Q01DX009 (ip), vehicle: Klucel (hydroxypropylcellulose) (HPC), evaluated on day 30
  T/C: 89, 90, 93, 94, 97 (3×), 99, 100, 103, 106, 108, 110 (2×), 111, 112 (3×), 113, 114 (3×), 116, 119, 121, 123, 126, 127 (2×), 129 % of control (2×)
dose: 200.0 mg/kg/injection, schedule: Q01DX009 (ip), vehicle: Klucel (hydroxypropylcellulose) (HPC), evaluated on day 35
  T/C: 98 and 114 % of control
dose: 200.0 mg/kg/injection, schedule: Q01DX009 (ip), vehicle: Klucel (hydroxypropylcellulose) (HPC)
  survivor count: 2 of 3 and 3 of 3
dose: 200.0 mg/kg/injection, schedule: Q04DX002 (ip), vehicle: Klucel (hydroxypropylcellulose) (HPC), evaluated on day 30
  T/C: 94, 95, 99, 102, 103, 105 (2×), 106 (2×), 107 (4×), 108 (4×), 109 (4×), 110 (4×), 111 (2×), 113 (3×), 117, 118, 128 % of control
dose: 200.0 mg/kg/injection, schedule: Q04DX002 (ip), vehicle: Klucel (hydroxypropylcellulose) (HPC), evaluated on day 35
  T/C: 100, 104, 109 % of control
dose: 200.0 mg/kg/injection, schedule: Q04DX002 (ip), vehicle: Klucel (hydroxypropylcellulose) (HPC)
  survivor count: 3 of 3 and 6 of 6
dose: 200.0 mg/kg/injection, schedule: Q04DX003 (ip), vehicle: Klucel (hydroxypropylcellulose) (HPC)
  T/C: 100, 101, 102, 104, 106 (3×), 106 [2 of 3 alive], 107, 108 (2×), 109, 110 (2×), 113 (3×), 114 (2×), 116 (7×), 117 (2×), 119, 120 (3×), 122, 126 % of control
[4]
  T/C: 95, 100, 101, 102 (2×), 104 (3×), 104 [5 of 6 alive], 105 (2×), 106 (2×), 106 [5 of 6 alive], 107 (2×), 108 (2×), 109, 110 (3×), 111, 113 (2×), 118, 120, 121, 123, 124, 140 % of control
  survivor count: 0 of 6
dose: 400.0 mg/kg/injection, schedule: Q01DX005 (ip), vehicle: Klucel (hydroxypropylcellulose) (HPC), evaluated on day 30
  T/C: 86 (3×), 91, 95 [5 of 6 alive], 104, 113, 113 [5 of 6 alive], 115, 121, 123, 124, 125, 128 (2×), 129 (2×), 133 (2×), 137, 144, 175 % of control
dose: 400.0 mg/kg/injection, schedule: Q01DX005 (ip), vehicle: Klucel (hydroxypropylcellulose) (HPC), evaluated on day 35
  T/C: 93 % of control
dose: 400.0 mg/kg/injection, schedule: Q01DX005 (ip), vehicle: Klucel (hydroxypropylcellulose) (HPC)
  survivor count: 3 of 3 and 6 of 6
dose: 400.0 mg/kg/injection, schedule: Q01DX009 (ip), vehicle: Klucel (hydroxypropylcellulose) (HPC), evaluated on day 30
  T/C: 86, 87, 88 (2×), 91, 92, 93, 94, 98, 100 (3×), 101, 102 (3×), 104, 105, 107, 109, 110, 111, 114, 116 [2 of 3 alive], 117, 119, 127, 176 % of control
dose: 400.0 mg/kg/injection, schedule: Q01DX009 (ip), vehicle: Klucel (hydroxypropylcellulose) (HPC), evaluated on day 35
  T/C: 91 and 104 % of control
dose: 400.0 mg/kg/injection, schedule: Q01DX009 (ip), vehicle: Klucel (hydroxypropylcellulose) (HPC)
  survivor count: 3 of 3 and 6 of 6
dose: 400.0 mg/kg/injection, schedule: Q04DX002 (ip), vehicle: Klucel (hydroxypropylcellulose) (HPC), evaluated on day 30
  T/C: 99, 101, 106, 108 (5×), 109, 110 (2×), 111 (3×), 112 (3×), 113 (3×), 114 (2×), 115 (4×), 116, 117, 118, 121, 122, 123, 128 % of control
dose: 400.0 mg/kg/injection, schedule: Q04DX002 (ip), vehicle: Klucel (hydroxypropylcellulose) (HPC), evaluated on day 35
  T/C: 111, 112, 113 % of control
dose: 400.0 mg/kg/injection, schedule: Q04DX002 (ip), vehicle: Klucel (hydroxypropylcellulose) (HPC)
  survivor count: 3 of 3 and 6 of 6
dose: 400.0 mg/kg/injection, schedule: Q04DX003 (ip), vehicle: Klucel (hydroxypropylcellulose) (HPC)
  T/C: 102, 104 (2×), 106, 108 (2×), 110 (5×), 111 (3×), 113 (3×), 114, 115 (2×), 116 (3×), 117, 119 (3×), 120, 122 (2×), 126, 128, 139, 252 % of control

## COC(=O)Nc1nc2ccc(C(=O)c3ccc(F)cc3)cc2[nH]1
dose: 25.0 mg/kg/injection, schedule: Q01DX009 (ip), vehicle: saline with Tween-80
  T/C: 140 % of control
dose: 50.0 mg/kg/injection, schedule: Q01DX009 (ip), vehicle: saline with Tween-80
  T/C: 147 % of control
dose: 200.0 mg/kg/injection, schedule: Q01DX009 (ip), vehicle: saline with Tween-80
  survivor count: 4 of 6 and 6 of 6
